From the supplement of paper PMC10849652
This is one part of the list.

The chains behind the UniProt entries cited, without tags or fusion partners. Where a name states a change or a piece, a line headed by the entry shows the natural chain unless it says otherwise.
UniProt Q9Y2X3: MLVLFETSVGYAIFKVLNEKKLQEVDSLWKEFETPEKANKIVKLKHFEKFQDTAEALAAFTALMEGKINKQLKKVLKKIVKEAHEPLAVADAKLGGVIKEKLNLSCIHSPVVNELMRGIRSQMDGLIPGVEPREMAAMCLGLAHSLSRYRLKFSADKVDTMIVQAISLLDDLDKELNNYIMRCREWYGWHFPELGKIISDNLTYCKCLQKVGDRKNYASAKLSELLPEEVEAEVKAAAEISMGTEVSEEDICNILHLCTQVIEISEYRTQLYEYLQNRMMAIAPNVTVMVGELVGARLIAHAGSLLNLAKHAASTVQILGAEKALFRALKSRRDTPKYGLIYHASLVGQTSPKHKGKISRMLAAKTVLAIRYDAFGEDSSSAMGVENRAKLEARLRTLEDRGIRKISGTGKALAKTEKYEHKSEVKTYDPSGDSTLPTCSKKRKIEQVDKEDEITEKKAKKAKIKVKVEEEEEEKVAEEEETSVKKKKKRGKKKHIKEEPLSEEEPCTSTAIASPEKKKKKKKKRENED
UniProt Q96IY1: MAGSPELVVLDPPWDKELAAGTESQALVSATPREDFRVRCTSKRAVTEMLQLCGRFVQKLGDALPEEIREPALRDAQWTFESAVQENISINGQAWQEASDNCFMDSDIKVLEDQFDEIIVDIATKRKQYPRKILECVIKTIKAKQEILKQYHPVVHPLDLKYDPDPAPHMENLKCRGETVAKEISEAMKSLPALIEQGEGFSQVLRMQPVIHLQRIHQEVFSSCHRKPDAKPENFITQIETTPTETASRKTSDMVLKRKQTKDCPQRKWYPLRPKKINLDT
UniProt Q9NZJ9: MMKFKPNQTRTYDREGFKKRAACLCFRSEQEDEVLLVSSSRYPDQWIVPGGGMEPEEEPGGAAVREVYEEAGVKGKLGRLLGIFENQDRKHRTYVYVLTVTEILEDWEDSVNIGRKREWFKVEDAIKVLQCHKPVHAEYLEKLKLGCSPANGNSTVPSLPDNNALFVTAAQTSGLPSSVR
UniProt P78316: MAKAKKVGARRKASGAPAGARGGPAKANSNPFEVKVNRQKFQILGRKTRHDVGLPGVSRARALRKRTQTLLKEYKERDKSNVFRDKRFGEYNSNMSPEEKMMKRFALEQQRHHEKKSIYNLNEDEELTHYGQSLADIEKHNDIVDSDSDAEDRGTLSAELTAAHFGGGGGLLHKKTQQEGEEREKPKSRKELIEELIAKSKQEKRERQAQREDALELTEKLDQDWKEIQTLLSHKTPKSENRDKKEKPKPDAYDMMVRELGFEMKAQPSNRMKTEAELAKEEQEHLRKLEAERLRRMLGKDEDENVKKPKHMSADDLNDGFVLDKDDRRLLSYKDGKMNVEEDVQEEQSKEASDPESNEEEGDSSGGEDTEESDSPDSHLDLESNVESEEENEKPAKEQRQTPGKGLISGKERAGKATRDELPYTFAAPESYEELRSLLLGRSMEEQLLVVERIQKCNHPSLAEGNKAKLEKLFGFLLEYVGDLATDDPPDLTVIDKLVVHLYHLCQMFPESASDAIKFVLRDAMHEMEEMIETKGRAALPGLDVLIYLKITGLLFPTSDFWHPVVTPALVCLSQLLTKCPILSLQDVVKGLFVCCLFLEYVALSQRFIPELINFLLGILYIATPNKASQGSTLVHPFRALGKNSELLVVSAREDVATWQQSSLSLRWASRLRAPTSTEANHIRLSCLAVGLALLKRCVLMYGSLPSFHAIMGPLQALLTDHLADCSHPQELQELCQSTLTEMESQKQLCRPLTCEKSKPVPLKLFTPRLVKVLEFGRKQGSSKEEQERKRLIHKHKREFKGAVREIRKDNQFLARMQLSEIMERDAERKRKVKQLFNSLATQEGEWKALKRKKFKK
UniProt Q9Y5B8, whole entry, looked up: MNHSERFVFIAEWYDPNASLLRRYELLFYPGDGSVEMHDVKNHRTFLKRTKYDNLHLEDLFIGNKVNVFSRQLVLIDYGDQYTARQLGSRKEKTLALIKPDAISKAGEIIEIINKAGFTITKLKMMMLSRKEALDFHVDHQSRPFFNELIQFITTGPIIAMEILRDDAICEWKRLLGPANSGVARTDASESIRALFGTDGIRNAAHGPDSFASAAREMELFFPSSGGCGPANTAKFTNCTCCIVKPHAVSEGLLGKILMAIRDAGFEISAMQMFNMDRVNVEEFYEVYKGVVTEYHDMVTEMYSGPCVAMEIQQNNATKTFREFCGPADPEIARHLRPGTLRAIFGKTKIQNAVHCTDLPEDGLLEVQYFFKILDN
UniProt Q9NXX6: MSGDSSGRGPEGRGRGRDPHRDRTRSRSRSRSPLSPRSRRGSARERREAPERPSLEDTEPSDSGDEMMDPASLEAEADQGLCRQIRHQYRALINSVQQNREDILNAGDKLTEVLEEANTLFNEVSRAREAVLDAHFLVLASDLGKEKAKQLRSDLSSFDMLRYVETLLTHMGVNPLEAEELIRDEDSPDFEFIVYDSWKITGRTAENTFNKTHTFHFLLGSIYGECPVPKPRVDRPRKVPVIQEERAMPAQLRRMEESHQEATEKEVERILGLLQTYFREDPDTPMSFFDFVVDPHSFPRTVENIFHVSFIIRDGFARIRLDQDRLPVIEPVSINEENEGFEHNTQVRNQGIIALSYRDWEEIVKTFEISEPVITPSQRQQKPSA
UniProt Q08J23, whole entry, looked up: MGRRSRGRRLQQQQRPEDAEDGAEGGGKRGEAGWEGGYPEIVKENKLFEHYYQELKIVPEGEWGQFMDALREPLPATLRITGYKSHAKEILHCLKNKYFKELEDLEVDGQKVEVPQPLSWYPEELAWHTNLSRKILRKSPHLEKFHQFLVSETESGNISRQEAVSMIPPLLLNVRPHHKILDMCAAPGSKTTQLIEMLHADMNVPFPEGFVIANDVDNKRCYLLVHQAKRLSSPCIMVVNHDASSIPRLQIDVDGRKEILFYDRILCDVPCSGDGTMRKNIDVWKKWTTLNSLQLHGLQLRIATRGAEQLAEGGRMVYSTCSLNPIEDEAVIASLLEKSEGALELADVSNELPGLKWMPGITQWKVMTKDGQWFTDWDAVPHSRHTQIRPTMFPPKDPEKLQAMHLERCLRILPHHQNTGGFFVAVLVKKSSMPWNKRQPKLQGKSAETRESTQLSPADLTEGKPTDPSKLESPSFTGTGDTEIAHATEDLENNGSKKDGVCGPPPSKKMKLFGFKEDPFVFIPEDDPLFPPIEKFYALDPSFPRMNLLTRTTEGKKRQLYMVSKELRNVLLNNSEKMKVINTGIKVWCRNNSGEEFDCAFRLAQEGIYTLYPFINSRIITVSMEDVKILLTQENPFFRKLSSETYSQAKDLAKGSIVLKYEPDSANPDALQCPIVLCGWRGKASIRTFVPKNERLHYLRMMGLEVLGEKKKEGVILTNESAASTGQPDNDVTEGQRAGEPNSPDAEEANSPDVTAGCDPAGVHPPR
UniProt P78549: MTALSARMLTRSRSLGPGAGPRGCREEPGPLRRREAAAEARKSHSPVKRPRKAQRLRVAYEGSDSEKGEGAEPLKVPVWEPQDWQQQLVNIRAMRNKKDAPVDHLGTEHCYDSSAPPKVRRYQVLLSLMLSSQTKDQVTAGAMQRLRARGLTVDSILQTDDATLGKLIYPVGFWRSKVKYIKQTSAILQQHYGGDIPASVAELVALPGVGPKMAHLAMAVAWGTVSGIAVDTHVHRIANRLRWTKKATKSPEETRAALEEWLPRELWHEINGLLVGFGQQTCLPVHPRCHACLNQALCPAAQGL
UniProt Q9BVI4: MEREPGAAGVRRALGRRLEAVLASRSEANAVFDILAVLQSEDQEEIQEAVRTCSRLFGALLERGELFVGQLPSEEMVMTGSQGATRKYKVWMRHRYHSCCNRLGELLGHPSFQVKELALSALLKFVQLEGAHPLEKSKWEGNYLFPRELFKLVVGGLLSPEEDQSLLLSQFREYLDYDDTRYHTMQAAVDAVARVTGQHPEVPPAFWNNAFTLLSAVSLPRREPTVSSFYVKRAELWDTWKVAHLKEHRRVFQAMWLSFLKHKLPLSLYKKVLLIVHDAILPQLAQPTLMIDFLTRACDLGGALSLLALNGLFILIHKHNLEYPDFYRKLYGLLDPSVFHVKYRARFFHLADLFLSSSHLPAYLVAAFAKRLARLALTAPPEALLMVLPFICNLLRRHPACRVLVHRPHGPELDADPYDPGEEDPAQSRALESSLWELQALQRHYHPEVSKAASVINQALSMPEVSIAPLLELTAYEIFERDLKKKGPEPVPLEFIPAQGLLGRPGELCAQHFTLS
UniProt O75694: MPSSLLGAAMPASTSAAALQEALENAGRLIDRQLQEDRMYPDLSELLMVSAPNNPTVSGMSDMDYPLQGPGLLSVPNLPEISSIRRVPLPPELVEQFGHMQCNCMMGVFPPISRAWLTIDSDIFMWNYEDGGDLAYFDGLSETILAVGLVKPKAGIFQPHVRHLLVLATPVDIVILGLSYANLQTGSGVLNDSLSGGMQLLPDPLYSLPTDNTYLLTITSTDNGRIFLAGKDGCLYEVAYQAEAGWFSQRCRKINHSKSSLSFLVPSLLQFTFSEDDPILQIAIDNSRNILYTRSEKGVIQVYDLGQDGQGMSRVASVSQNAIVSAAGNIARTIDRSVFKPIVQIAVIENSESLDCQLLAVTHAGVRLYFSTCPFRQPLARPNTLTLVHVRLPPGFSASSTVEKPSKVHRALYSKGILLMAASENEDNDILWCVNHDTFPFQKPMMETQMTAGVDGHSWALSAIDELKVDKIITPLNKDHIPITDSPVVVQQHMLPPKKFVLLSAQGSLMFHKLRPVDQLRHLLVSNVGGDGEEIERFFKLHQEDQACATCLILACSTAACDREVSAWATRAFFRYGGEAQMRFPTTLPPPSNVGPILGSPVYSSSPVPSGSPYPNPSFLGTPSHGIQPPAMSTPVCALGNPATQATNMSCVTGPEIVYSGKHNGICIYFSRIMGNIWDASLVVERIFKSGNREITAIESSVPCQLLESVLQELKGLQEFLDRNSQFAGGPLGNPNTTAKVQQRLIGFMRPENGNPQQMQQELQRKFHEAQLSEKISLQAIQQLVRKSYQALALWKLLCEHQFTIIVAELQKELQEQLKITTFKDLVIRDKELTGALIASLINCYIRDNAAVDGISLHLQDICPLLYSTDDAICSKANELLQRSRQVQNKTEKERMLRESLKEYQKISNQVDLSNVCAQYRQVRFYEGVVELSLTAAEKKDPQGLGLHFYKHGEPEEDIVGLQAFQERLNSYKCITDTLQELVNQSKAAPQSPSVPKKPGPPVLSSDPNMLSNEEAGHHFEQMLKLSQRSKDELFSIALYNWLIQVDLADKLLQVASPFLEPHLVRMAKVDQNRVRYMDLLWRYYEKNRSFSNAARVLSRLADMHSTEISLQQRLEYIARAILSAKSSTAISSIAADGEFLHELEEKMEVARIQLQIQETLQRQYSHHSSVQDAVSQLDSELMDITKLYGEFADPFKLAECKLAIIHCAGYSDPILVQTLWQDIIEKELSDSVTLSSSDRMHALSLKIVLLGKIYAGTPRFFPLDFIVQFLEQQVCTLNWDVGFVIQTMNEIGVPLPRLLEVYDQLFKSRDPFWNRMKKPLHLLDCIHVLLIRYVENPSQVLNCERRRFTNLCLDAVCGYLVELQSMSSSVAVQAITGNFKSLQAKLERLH
UniProt Q13232: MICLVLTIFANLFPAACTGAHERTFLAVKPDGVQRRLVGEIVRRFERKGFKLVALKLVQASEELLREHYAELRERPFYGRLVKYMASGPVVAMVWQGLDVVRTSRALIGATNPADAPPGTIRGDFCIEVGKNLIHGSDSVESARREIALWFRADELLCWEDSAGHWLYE
UniProt Q9NV35: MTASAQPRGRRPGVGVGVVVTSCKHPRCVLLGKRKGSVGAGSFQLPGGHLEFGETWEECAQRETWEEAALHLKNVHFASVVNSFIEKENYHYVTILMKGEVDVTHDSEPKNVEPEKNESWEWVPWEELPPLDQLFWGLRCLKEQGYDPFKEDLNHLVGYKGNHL
UniProt Q9BQG2: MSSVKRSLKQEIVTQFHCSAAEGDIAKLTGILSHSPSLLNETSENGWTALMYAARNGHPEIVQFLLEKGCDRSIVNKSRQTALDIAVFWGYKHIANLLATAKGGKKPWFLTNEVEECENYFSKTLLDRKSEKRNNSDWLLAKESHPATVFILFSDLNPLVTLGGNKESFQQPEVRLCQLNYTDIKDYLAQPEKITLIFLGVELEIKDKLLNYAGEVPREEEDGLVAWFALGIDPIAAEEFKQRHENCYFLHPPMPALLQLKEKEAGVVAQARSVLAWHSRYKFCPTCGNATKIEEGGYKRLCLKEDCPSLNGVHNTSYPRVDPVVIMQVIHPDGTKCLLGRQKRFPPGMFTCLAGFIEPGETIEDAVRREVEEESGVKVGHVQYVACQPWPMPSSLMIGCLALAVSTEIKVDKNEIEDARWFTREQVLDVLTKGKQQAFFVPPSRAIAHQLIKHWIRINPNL
UniProt Q96DE0: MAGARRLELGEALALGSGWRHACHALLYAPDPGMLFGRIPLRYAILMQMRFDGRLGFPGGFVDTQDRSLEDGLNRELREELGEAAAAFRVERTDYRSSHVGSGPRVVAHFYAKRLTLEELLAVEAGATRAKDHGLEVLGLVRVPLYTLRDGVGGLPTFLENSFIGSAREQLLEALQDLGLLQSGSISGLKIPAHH

What was measured:
Assay in all cases: log2 fold change, soluble protein after heating vs DMSO (PISA); higher = thermal stabilisation; K562 lysate, 10 uM; active = over 0.2 and 3.5 SD of the protein, either way, in both replicates (recomputed)
[1] = compound: CCCS(=O)(=O)Nc1ccc(F)c(C(=O)c2c[nH]c3ncc(-c4ccc(Cl)cc4)cc23)c1F [vemurafenib]
Procedure, shortened: (§1)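 K562 pellets were dounce-homogenised in PBS pH 7.4 containing 1 mM MgCl2, and the crude extract, at 1 mg/mL protein, was exposed to 10 μM compound for 30 min. Aliquots were heated for 3 min across 48°C-58°C, pooled, brought to 0.5% NP-40 at 4°C and spun at 21,000xg for 90 min, with the supernatant taken as soluble protein. TMTpro 16plex LC-MS/MS with equalised channel sums quantified that protein. Values are log-two fold changes in thermal stability relative to solvent controls, taken from duplicates.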

[2] = compound: CCCS(=O)(=O)Nc1ccc(F)c(C(=O)c2c[nH]c3ncc(Cl)cc23)c1F
Procedure, shortened: as §1

[3] = compound: CCN(CCCOc1ccc2c(Nc3cc(CC(=O)Nc4cccc(F)c4)[nH]n3)ncnc2c1)CCOP(=O)(O)O [barasertib]
Procedure, shortened: as §1

[4] = compound: CC[C@@H]1C(=O)N(C)c2cnc(Nc3ccc(C(=O)NC4CCN(C)CC4)cc3OC)nc2N1C1CCCC1
Procedure, shortened: as §1

[5] = compound: CC[C@@H]1C(=O)N(C)c2cnc(Nc3ccc(C(=O)N[C@H]4CC[C@H](N5CCN(CC6CC6)CC5)CC4)cc3OC)nc2N1C(C)C [volasertib]
Procedure, shortened: as §1

[6] = compound: CCn1c(C(=O)N(C2CC2)C2CC2)cc2c3c(ncn3C)c(Nc3cc(C)n(C)n3)nc21
Procedure, shortened: as §1

[7] = compound: CCn1cc(-c2ccnc3[nH]c(-c4cccc(CN(C)C)c4)cc23)c(-c2ccc(NC(=O)N(C)C)cc2)n1
Procedure, shortened: as §1

[8] = compound: CN1CCC(CNc2ccc3ncc(-c4cccc(OC(F)(F)F)c4)n3n2)CC1
Procedure, shortened: as §1

[9] = compound: CN1CCN(CCOc2cc(OC3CCOCC3)c3c(Nc4c(Cl)ccc5c4OCO5)ncnc3c2)CC1 [saracatinib]
Procedure, shortened: as §1

[10] = compound: CN1CCN(c2nc(C3=C(c4c[nH]c5ccccc45)C(=O)NC3=O)c3ccccc3n2)CC1 [sotrastaurin]
Procedure, shortened: as §1

[11] = compound: CN1CC[C@H](c2c(O)cc(O)c3c(=O)cc(-c4ccccc4Cl)oc23)[C@H](O)C1 [alvocidib]
Procedure, shortened: as §1

[12] = compound: CN1CCc2c(c3ccccc3n2Cc2ccc(C(=O)NO)cc2)C1 [Tubastatin A]
Procedure, shortened: as §1

[13] = compound: CNC(=O)C1=CC=CC=C1NC2=NC(=NC=C2Cl)NC3=C(C=C(C=C3)N4CCOCC4)OC
Procedure, shortened: as §1

[14] = compound: CNC(=O)c1ccc(Nc2ncc(C(F)(F)F)c(NCc3nccnc3N(C)S(C)(=O)=O)n2)cc1 [defactinib]
Procedure, shortened: as §1

[15] = compound: CNc1nc(-c2ccc3c(N)n[nH]c3c2)cc(N2C[C@@H](C(=O)NC3CCCCC3)CC[C@H]2C)n1
Procedure, shortened: as §1

[16] = compound: COC(=O)N[C@@H](C)CNc1nccc(-c2cn(C(C)C)nc2-c2cc(Cl)cc(NS(C)(=O)=O)c2F)n1 [encorafenib]
Procedure, shortened: as §1

[17] = compound: COC(=O)[C@H](CCSC)NC(=O)C1=C(C=C(C=C1)NC[C@H](CS)N)C2=CC=CC=C2
Procedure, shortened: as §1

[18] = compound: COc1cc(Nc2ncc3c(n2)-c2ccc(Cl)cc2C(c2c(F)cccc2OC)=NC3)ccc1C(=O)O [alisertib]
Procedure, shortened: as §1

[19] = compound: COc1cc2nc(-c3cc(F)ccc3O)nc(N[C@@H]3CNC[C@H]3C(C)(C)O)c2cc1OC
Procedure, shortened: as §1

[20] = compound: COc1cc2ncnc(Nc3ccc(F)c(Cl)c3)c2cc1OCCCN1CCOCC1 [gefitinib]
Procedure, shortened: as §1

Measured: log2 fold change

NOP58 (UniProt Q9Y2X3)
inactive: [1] -0.003 | [2] 0.04 | [3] 0.014 | [4] 0.003 | [5] -0.018 | [6] 0.014 | [7] 0.037 | [8] -0.091 | [9] -0.013 | [10] -0.003 | [11] 0.02 | [12] -0.04 | [13] 0.014 | [14] 0.004 | [15] 0.023 | [16] 0.008 | [17] 0.014 | [18] -0.012 | [19] 0 | [20] 0.001

NSL1 (UniProt Q96IY1)
inactive: [1] -0.017 | [2] 0 | [3] -0.06 | [4] 0.005 | [5] 0.007 | [6] 0.048 | [7] -0.016 | [8] 0.047 | [9] 0.012 | [10] 0.005 | [11] -0.026 | [12] -0.084 | [13] 0.016 | [14] 0.034 | [15] -0.004 | [16] -0.055 | [17] 0.094 | [18] 0.019 | [19] -0.014 | [20] -0.004

NUDT4 (UniProt Q9NZJ9)
inactive: [1] -0.24 | [2] 0.04 | [3] -0.032 | [4] -0.078 | [5] -0.054 | [6] 0.082 | [7] 0.23 | [8] 0.005 | [9] -0.03 | [10] 0.005 | [11] -0.001 | [12] -0.149 | [13] 0.063 | [14] 0.153 | [15] -0.066 | [16] 0.051 | [17] -0.17 | [18] -0.036 | [19] 0.001 | [20] -0.052

NOP14 (UniProt P78316)
inactive: [1] 0.027 | [2] -0.014 | [3] -0.034 | [4] -0.036 | [5] -0.009 | [6] 0.024 | [7] 0.012 | [8] 0.016 | [9] 0.034 | [10] 0.023 | [11] -0.014 | [12] -0.029 | [13] 0.01 | [14] 0.051 | [15] 0.021 | [16] 0.028 | [17] 0.134 | [18] 0.02 | [19] -0.023 | [20] -0.007

NPEPPS (UniProt P55786)
inactive: [1] 0.008 | [2] 0.001 | [3] -0.017 | [4] -0.017 | [5] 0.021 | [6] -0.002 | [7] -0.023 | [8] 0.045 | [9] -0.006 | [10] 0.006 | [11] -0.002 | [12] 0.047 | [13] -0.006 | [14] -0.003 | [15] 0.003 | [16] -0.032 | [17] 0.01 | [18] 0.003 | [19] 0.002 | [20] -0.001

NME7 (UniProt Q9Y5B8)
inactive: [1] 0.01 | [2] 0.016 | [3] 0.034 | [4] -0.059 | [5] -0.012 | [6] -0.019 | [7] -0.018 | [8] 0.034 | [9] 0.004 | [10] 0.03 | [11] -0.024 | [12] -0.155 | [13] -0.01 | [14] -0.018 | [15] -0.007 | [16] -0.007 | [17] 0.068 | [18] 0.007 | [19] 0.001 | [20] 0.059

NSMCE4A (UniProt Q9NXX6)
inactive: [1] -0.069 | [2] -0.004 | [3] 0.017 | [4] -0.074 | [5] -0.041 | [6] 0.011 | [7] 0.022 | [8] -0.07 | [9] -0.027 | [10] 0.011 | [11] -0.013 | [12] -0.03 | [13] 0.13 | [14] 0.009 | [15] 0.001 | [16] 0.013 | [17] 0.015 | [18] -0.008 | [19] 0.003 | [20] 0.049

NSUN2 (UniProt Q08J23)
inactive: [1] 0.028 | [2] 0.004 | [3] -0.006 | [4] -0.032 | [5] 0.004 | [6] 0.037 | [7] 0.081 | [8] -0.022 | [9] 0.006 | [10] 0.005 | [11] 0.019 | [12] -0.097 | [13] -0.018 | [14] 0.007 | [15] -0.024 | [16] -0.011 | [17] 0.096 | [18] 0.014 | [19] -0.007 | [20] -0.02

NMT2 (UniProt O60551)
inactive: [1] 0.093 | [2] 0.033 | [3] -0.004 | [4] -0.038 | [5] 0.03 | [6] -0.013 | [7] -0.037 | [8] 0.029 | [9] -0.002 | [10] 0.005 | [11] -0.023 | [12] 0.064 | [13] 0.005 | [14] -0.036 | [15] 0.009 | [16] -0.014 | [17] 0.077 | [18] 0.018 | [19] -0.001 | [20] -0.017

NTHL1 (UniProt P78549)
inactive: [1] 0.083 | [2] 0.061 | [3] -0.042 | [4] 0.101 | [5] 0.005 | [6] -0.069 | [7] -0.01 | [8] -0.224 | [9] -0.079 | [10] 0.097 | [11] -0.041 | [12] -0.073 | [13] -0.017 | [14] 0.172 | [15] -0.013 | [16] -0.222 | [17] 0.289 | [18] -0.097 | [19] 0.15 | [20] -0.001

NOC4L (UniProt Q9BVI4)
inactive: [1] -0.036 | [2] 0.046 | [3] -0.057 | [4] -0.059 | [5] -0.017 | [6] 0.021 | [7] 0.035 | [8] -0.096 | [9] -0.001 | [10] 0.032 | [11] 0.026 | [12] -0.1 | [13] -0.006 | [14] -0.039 | [15] 0.038 | [16] 0.118 | [17] 0.083 | [18] -0.019 | [19] -0.035 | [20] -0.047

NUP155 (UniProt O75694)
inactive: [1] 0.125 | [2] 0.031 | [3] 0.001 | [4] 0.034 | [5] -0.095 | [6] 0.046 | [7] -0.004 | [8] -0.031 | [9] -0.024 | [10] 0.052 | [11] -0.094 | [12] -0.047 | [13] 0.132 | [14] 0.037 | [15] 0.056 | [16] -0.006 | [17] -0.078 | [18] 0.021 | [19] 0.042 | [20] -0.011

2 neighbouring records out of the list so far:
NSUN2 (UniProt Q08J23)
inactive: [1] 0.028 | [2] 0.004 | [3] -0.006 | [4] -0.032 | [5] 0.004 | [6] 0.037 | [7] 0.081 | [8] -0.022 | [9] 0.006 | [10] 0.005 | [11] 0.019 | [12] -0.097 | [13] -0.018 | [14] 0.007 | [15] -0.024 | [16] -0.011 | [17] 0.096 | [18] 0.014 | [19] -0.007 | [20] -0.02

NMT2 (UniProt O60551)
inactive: [1] 0.093 | [2] 0.033 | [3] -0.004 | [4] -0.038 | [5] 0.03 | [6] -0.013 | [7] -0.037 | [8] 0.029 | [9] -0.002 | [10] 0.005 | [11] -0.023 | [12] 0.064 | [13] 0.005 | [14] -0.036 | [15] 0.009 | [16] -0.014 | [17] 0.077 | [18] 0.018 | [19] -0.001 | [20] -0.017

Remaining list, next part:

NME3 (UniProt Q13232)
inactive: [1] 0.027 | [2] 0.003 | [3] -0.002 | [4] 0.035 | [5] -0.021 | [6] 0.024 | [7] 0.006 | [8] 0.03 | [9] -0.072 | [10] 0.036 | [11] 0.013 | [12] -0.002 | [13] 0.025 | [14] -0.013 | [15] -0.037 | [16] 0.006 | [17] -0.114 | [18] -0.198 | [19] 0.027 | [20] -0.053

NUDT15 (UniProt Q9NV35)
inactive: [1] 0.019 | [2] 0.072 | [3] -0.014 | [4] -0.06 | [5] -0.06 | [6] -0.032 | [7] -0.235 | [8] -0.022 | [9] 0.038 | [10] 0.002 | [11] 0 | [12] -0.057 | [13] -0.071 | [14] -0.025 | [15] 0.07 | [16] -0.009 | [17] 0.088 | [18] -0.083 | [19] 0.036 | [20] 0.028

NUDT12 (UniProt Q9BQG2)
inactive: [1] -0.005 | [2] -0.002 | [3] 0.008 | [4] 0.036 | [5] -0.002 | [6] -0.027 | [7] -0.035 | [8] 0.097 | [9] -0.015 | [10] 0.004 | [11] 0.014 | [12] 0 | [13] 0.059 | [14] -0.004 | [15] 0.103 | [16] 0.036 | [17] -0.08 | [18] -0.037 | [19] 0.02 | [20] 0.084

NUDT16 (UniProt Q96DE0)
inactive: [1] -0.035 | [2] 0.026 | [3] 0.007 | [4] 0.05 | [5] -0.022 | [6] -0.008 | [7] -0.049 | [8] 0.07 | [9] -0.008 | [10] -0.013 | [11] -0.023 | [12] 0.081 | [13] 0.02 | [14] 0.067 | [15] 0.093 | [16] 0.048 | [17] -0.01 | [18] 0.002 | [19] -0.006 | [20] 0.029
